Laboratory results published in article PMC4769547.
These are yes or no findings as the source states them, for the method shown. In cells and extracts the contact can be indirect. Some binding calls cover weakened binding; strength is not graded here.

By UniProt entry, the sequences of proteins in these tests, tags left out. Where a name states a change or a piece, a line headed by the entry shows the natural chain unless it says otherwise.
UniProt P23771: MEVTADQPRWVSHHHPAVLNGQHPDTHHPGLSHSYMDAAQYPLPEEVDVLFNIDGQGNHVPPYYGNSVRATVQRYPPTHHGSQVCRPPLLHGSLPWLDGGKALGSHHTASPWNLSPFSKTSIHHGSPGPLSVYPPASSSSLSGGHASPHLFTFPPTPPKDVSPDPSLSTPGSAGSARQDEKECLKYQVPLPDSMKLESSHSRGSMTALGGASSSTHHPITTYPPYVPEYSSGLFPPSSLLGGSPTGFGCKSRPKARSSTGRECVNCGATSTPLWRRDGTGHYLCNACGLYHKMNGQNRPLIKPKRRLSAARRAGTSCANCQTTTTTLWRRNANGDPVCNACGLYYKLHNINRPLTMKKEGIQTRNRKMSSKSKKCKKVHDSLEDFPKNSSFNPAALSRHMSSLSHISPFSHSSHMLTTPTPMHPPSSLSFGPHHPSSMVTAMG
UniProt P51532: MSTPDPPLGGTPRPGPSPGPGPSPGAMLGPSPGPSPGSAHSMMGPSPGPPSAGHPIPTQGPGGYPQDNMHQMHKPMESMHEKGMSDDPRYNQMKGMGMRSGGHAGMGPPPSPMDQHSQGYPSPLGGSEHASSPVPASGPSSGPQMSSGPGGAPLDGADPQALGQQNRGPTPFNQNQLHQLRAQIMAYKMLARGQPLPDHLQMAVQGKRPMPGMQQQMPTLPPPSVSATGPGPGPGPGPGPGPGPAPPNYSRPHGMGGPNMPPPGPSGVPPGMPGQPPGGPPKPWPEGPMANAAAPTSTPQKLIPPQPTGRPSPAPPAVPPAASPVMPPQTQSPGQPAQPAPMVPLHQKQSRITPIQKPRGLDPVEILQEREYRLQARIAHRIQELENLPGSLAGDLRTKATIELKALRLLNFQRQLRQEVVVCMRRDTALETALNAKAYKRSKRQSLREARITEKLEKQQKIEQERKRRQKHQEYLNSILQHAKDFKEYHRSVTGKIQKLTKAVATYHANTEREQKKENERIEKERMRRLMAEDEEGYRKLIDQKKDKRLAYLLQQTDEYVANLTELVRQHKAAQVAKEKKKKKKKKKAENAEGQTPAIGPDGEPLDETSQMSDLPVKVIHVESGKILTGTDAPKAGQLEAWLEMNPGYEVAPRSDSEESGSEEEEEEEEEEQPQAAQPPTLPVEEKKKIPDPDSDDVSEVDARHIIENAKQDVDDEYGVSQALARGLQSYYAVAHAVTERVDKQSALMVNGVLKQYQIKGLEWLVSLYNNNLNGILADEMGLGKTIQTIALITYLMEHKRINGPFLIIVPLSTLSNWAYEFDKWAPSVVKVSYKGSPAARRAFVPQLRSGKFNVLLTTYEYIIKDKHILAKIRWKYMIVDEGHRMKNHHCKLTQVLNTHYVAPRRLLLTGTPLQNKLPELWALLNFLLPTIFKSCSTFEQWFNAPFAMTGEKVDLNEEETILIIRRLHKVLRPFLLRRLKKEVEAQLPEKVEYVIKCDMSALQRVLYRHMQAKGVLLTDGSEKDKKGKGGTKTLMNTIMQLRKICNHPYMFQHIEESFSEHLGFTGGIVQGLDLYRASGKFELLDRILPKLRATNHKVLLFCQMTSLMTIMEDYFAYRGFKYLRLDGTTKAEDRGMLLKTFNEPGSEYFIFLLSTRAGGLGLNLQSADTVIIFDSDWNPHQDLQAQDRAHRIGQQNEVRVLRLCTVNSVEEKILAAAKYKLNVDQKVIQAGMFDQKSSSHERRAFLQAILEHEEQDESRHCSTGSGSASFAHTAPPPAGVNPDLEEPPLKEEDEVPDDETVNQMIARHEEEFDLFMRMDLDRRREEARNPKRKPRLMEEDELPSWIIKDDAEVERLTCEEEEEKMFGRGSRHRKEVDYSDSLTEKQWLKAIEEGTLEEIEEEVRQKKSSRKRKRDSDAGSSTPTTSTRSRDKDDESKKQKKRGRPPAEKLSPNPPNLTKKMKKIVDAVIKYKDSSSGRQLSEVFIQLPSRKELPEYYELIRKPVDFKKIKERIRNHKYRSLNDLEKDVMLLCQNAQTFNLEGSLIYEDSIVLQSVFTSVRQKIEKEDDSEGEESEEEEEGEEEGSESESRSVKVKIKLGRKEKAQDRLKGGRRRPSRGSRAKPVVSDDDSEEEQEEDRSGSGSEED

Experiments:
[1] = biological target: GATA3 (endogenous, T47D) (human (endogenous in T47D)) (UniProt P23771); experiment: co-IP; endogenous GATA3 immunoprecipitated from T47D nuclear extracts with GATA3 antibody; immunoblots
[2] = biological target: Ty1-GATA3 (wild-type GATA3) (human) (UniProt P23771); experiment: co-IP; Ty1-GATA3 immunoprecipitated from MDA-MB-231 nuclear extracts with Ty1 antibody; immunoblots

Row | binding [1] | binding [2] | Substance
1 | binds | – | BRG1 (endogenous, T47D) (from UniProt P51532 1-1647)
2 | – | binds | BRG1 (from UniProt P51532 1-1647)
